Test results reported in US20080312344A1, “DENDRIMERS MULTIVALENTLY SUBSTITUTED WITH ACTIVE GROUPS” (priority 2005, published 2008).
Some of these results come from one statement about several compounds together. For at least one compound, name, drawing or mass did not settle the structure.

Tests used:
rat receptor NKRPI = molecular target: T1, rat receptor NKRPI (Rattus norvegicus, UniProt P27471); assay: ELISA type assay, interaction with NKRPI receptor; type: binding; settings: compared to free GlcNAc
T1 sequence (P27471 1-223): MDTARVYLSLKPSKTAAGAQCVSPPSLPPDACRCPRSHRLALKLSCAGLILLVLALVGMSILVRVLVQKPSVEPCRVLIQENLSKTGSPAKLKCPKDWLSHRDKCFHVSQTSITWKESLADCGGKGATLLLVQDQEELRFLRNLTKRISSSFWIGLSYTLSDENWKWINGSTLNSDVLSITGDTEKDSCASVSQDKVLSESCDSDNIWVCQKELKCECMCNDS
Method: (§1) In addition, as a model for the interference with the natural killer cells of the immune system, the compounds were evaluated in an ELISA type assay for their interaction with the rat receptor NKRPI and the human CD 69 receptor.

human CD 69 receptor = molecular target: T2, human CD 69 receptor (Homo sapiens, UniProt Q07108); assay: ELISA type assay, interaction with CD 69 receptor; type: binding; settings: compared to free GlcNAc
T2 sequence (Q07108 1-199): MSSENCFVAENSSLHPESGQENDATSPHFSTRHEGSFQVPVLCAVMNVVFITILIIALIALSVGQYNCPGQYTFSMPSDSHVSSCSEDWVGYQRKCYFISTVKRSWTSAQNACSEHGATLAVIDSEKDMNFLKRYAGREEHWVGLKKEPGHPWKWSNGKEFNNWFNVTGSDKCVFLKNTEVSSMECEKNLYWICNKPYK
Method: as §1

COC(=O)c1cc(OCCNC(=O)c2cc(OCc3cn(CCCOC4OC(CO)C(O)C(O)C4NC(C)=O)nn3)cc(OCc3cn(CCCOC4OC(CO)C(O)C(O)C4NC(C)=O)nn3)c2)cc(OCCNC(=O)c2cc(OCc3cn(CCCOC4OC(CO)C(O)C(O)C4NC(C)=O)nn3)cc(OCc3cn(CCCOC4OC(CO)C(O)C(O)C4NC(C)=O)nn3)c2)c1 (centres unmarked) [TETRA]
enhancement (factor) of interaction with NKRPI (rat receptor NKRPI): more than 100
enhancement (factor) of interaction with CD 69 (human CD 69 receptor): more than 100
